Reference: patent US20240108662A1, “ENGINEERED CELLS FUNCTIONALIZED WITH IMMUNE CHECKPOINT MOLECULES AND USES THEREOF” (The University of North Carolina at Chapel Hill, priority 2020, published 2024)

Assay: Proteomic analysis of native murine pancreata and decelled pancreatic ECM (Table 1)
Parameters: species or system mouse
Conditions: for Pancreatic ECM: Mean of log2(intensities): abundance of the listed protein in decelled pancreatic ECM; for Native pancreas tissue: Mean of log2(intensities): abundance of the listed protein in native murine pancreas tissue

Row | Molecule | Pancreatic ECM: Mean of log2(intensities) | Native pancreas tissue: Mean of log2(intensities)
1 | Q5SSZ5 (protein, UniProt Q5SSZ5 1-1440, looked up, full-length) MEDSHELDLTYVTERIIAVSFPASCSEESYLHSLQEVTRMLKCKHGDNYLVLNLSEKRYDLTKLNPKIMDVGWPELHAPPLDKMCTICKAQESWLNNDPQHVVVIHCRGGKGRIGVVISSYMHFTNVSASADQALDRFAMKKFYDDKISALMEPSQKRYVQFLSGLLSGAMKMNTSPLFLHFVIMHGVPSFDTGGACRPFLKLYQAMQPVYTSGIYNVGSENPSRIRIAIEPAQLLKGDIMVKCYHKKFRSATRDVIFRLQFHTGAVQGYGLLFGKEELDSACKDDRFPDYGKIELVFSATPEKIQGSEHLYSDQGVTVDYNTADPLIRWDSYENMSADGEVLHTQGPVDGSLYAKVRKKSASDTGIPSSPQGMPATSSPDHGDHTLSVSSDSGHSTASARTDKTEERLTPGARRGLSPQEKAELDQLLSGFGLEDSASSHKDMTDMRSKYSGTRHVVPAQVHVNGDAALKDRETDILDDEMPHHDLHSVDSLGTLSSSEGPQSTHLGPFTCLKSSQNSLLSDGFGNGVAEDHNGVLSPDLGLGVDTLYDRERMCGGREQKPLQPLLRKPSAPTPVQAYGQSNYSTQTWVRQQQMVAAHQYSFASDGEARLGSRSTVDNTGLAQPPPHIPVTPNRGASSRVAVQRGISNGPNPPDTQQLCPGKALQPRFQDDRVTNGVHQEPNTGSSPGSPTLDIDQSIEQLNRLILELDPTFEPIPTHLNALGISAVCPDGVGSGLRCSGRLDSVDGPGRSPGRQGDDPIGGRLRKLSIGQYDNDAASQVTFSKCGWGKAGVDPAPSLGSFSSPEDIKETVITAYPSDLNMIDGRIPNSKESSMCLTPSFPVSPETPYVKTSPRYPPFSPPEPQLSSPASLHKGREPRGCPEIISHTVGMSESPVGPKPTMLRADMPATPNFQQVFASSCTVSSNGPGQRRESPPSAERQWVESSPKSTLTLLGNSHPSESPLGTHEFCSSGKDSPGLPCFQSSELQASFHSHELSMSEPQGALPPAGSQTFLGFNTVTTATSVLPPGEDAGTLLVNSHGTSPAPGTPLLTTGAADNGFLPHNFLTVSPGASSHHSPGLQNQNVSLPGQPPLPEKKRASEGDRSLGSVSPSSSGFSSPHSGSTMSIPFPNVLPDFCKPSEVASPLPDSPNDKLVIVKFVQDTSKFWYKADISREQAIAMLKDKAPGSFIVRDSHSFRGAYGLAMKVATPPPSVLHLNKKAGDLSNELVRHFLIECTPKGVRLKGCSNEPYFGSLTALVCQHSITPLALPCKLLIPERDPLEEIAENSPQTAANSAAELLKQGAACNVWYLNSVEMESLTGHQAVQKALSMTLVQEPPPVSTVVHFKVSAQGITLTDNQRKLFFRRHYPVSSVIFCALDPQDRKWIKDGPSSKVFGFVARKQGSATDNVCHLFAEHDPEQPASAIVNFVSKVMIGSPKKI | 25.18 a.u. | 22.22 a.u.
2 | O35678 (protein, UniProt O35678 1-303, looked up, full-length) MPEASSPRRTPQNVPYQDLPHLVNADGQYLFCRYWKPSGTPKALIFVSHGAGEHCGRYDELAHMLKGLDMLVFAHDHVGHGQSEGERMVVSDFQVFVRDVLQHVDTIQKDYPDVPIFLLGHSMGGAISILVAAERPTYFSGMVLISPLVLANPESASTLKVLAAKLLNFVLPNMTLGRIDSSVLSRNKSEVDLYNSDPLVCRAGLKVCFGIQLLNAVARVERAMPRLTLPFLLLQGSADRLCDSKGAYLLMESSRSQDKTLKMYEGAYHVLHRELPEVTNSVLHEVNSWVSHRIAAAGAGCPP | 24.61 a.u. | 21.79 a.u.
3 | Q569Z5 (protein, UniProt Q569Z5 1-1032, looked up, full-length) MGRESRHYRKRSASRGRSGSRSRSRSPSDKRSKRGDDRRSRSRDRDRRRERSRSRDKRRSRSRDRKRLRRSRSRERDRSRERRRSRSRDRRRSRSRSRGRRSRSSSPGSKTKKTENRSRSKEKAEGGDSSKEKKKDKDDKEDEKEKDAGNFDQNKLEEEMRKRKERVEKWREEQRKKAMENIGELKKEIEEMKQGKKWSLEDDDDDEDDPAEAEKEGTEMEDEELDPLDAYMEEVKEEVKKFNMRSVKGGAGNEKKSGPTVTKVVTVVTTKKAVVDADKKKGELMENDQDAMEYSSEEEEVDLQTALTGYQTKQRKLLEPVDHGKIEYEPFRKNFYVEVPELAKMSQEEVNVFRLEMEGITVKGKGCPKPIKSWVQCGISMKILNSLKKHGYEKPTPIQTQAIPAIMSGRDLIGIAKTGSGKTIAFLLPMFRHIMDQRSLEEGEGPIAVIMTPTRELALQITKECKKFSKTLGLRVVCVYGGTGISEQIAELKRGAEIIVCTPGRMIDMLAANSGRVTNLRRVTYVVLDEADRMFDMGFEPQVMRIVDNVRPDRQTVMFSATFPRAMEALARRILSKPIEVQVGGRSVVCSDVEQQVIVIEEEKKFLKLLELLGHYQESGSVIIFVDKQEHADGLLKDLMRASYPCMSLHGGIDQYDRDSIINDFKNGTCKLLVATSVAARGLDVKHLILVVNYSCPNHYEDYVHRAGRTGRAGNKGYAYTFITEDQARYAGDIIKALELSGTAVPPDLEKLWSDFKDQQKAEGKIIKKSSGFSGKGFKFDETEQALANERKKLQKAALGLQDSDDEDAAVDIDEQIESMFNSKKRVKDMAAPGTSSVPAPTAGNAEKLEIAKRLALRINAQKNLGIESQVDVMQQATNAILRGGTILAPTVSAKTIAEQLAEKINAKLNYVPLEKQEEERQEGGQSESFKRYEEELEINDFPQTARWKVTSKEALQRISEYSEAAITIRGTYFPPGKEPKEGERKIYLAIESANELAVQKAKAEITRLIKEELIRLQNSYQPTNKGRYKVL | 25.20 a.u. | 22.38 a.u.
4 | P59326 (protein, UniProt P59326 1-559, looked up, full-length) MSATSVDPQRTKGQDNKVQNGSLHQKDAVHDNDFEPYLSGQSNPSNSYPSMSDPYLSSYYPPSIGFPYSLSEAPWSTAGDPPIPYLTTYGQLSNGDHHFMHDAVFGQPGGLGNNIYQHRFNFFPENPAFSAWGTSGSQGQQTQSSAYGSSYTYPPSSLGGTVVDGQTGFHSDSLNKAPGMNSLEQGMVGLKIGDVTTSAVKTVGSVVNSVALTGVLSGNGGTNVNMPVSKPTSWAAIASKPAKPQPKMKTKSGPIVGGALPPPPIKHNMDIGTWDNKGPAPKASAPQQTPSPQAAPQPQQVAQPLPVQPPPLVQPQYQSPQQPLQPRWVAPRNRNAAFGQSGGANSDSNSVGNAQPTSAPSVESHPVLEKLKAAHSYNPKEFDWNLKSGRVFIIKSYSEDDIHRSIKYSIWCSTEHGNKRLDGAFRSMSSKGPVYLLFSVNGSGHFCGVAEMKSPVDYGTSAGVWSQDKWKGKFDVKWIFVKDVPNNQLRHIRLENNDNKPVTNSRDTQEVPLEKAKQVLKIIASYKHTTSIFDDFSHYEKRQEEEEVVRKERQNRNKQ | 24.19 a.u. | 21.39 a.u.
5 | Q3U821 (protein, UniProt Q3U821 1-830, looked up, full-length) MVEEGVRVVRCGGSRLNFRRAVFSVDSKYIFCVSGDFVKVYSTTTEECVHILHGHTDLVSGILVNPSNHLQLYSCSFDGTIKLWDYVDGILIKTFTIGPKLHAFFIPLHAEDSVFLTISKEEPDIFQLVSVKLPKSTSQDVEARQLTFVLDYINRSPKCIAFGNEGEYVAAVRDFYLSVYFFKKKKTCNFTLPSTKNKKNAKNKFTCVACHPKEDCIASGHMDGKIRLWRNFHSDQKYTYTCLHWHHDMVMDLAFTVTGTSLLSGGRECVLVEWRDGSEKNKEFLPRLGSSIEHISVSPAGDLFCTSHSDNKITVIHRNLDASAVIQGLVKDRSISTGLMVDPRTKALVLNGKPGHLQFYSLQGDKQLYNLDIIQQEYINDEGLTQTELTKAAFGCSGTWLATVEQRQENENELELQMKLWNYSKKTQGFVLNTKIAMPHDDHITALCFNNAESYEKPILVTASRDGHFKVWILTDDSDIYKKAIAWTCDFVGSYHKYQATNCCFSEDGSLLAVSFEEIVTIWDSQTWELKCTFCQRAGKIRHLCFGRLTCSKYLLGTTDNGILCCWNLLSCSIQWSAKLNVRVMEPDPYSDHVAAVAQSSAGSDLFVFKPSEPRPLYIQKNVSREEVQWGVFVPRDVPESFTSETHQWLNRSQFYFLTKSQSLLTFSTKSPEEKLTPTSKQLLAEESLPTTPFSFILGKHRQQQGAKLTETSENELVQLPLTENIPAITELLHTPAHVLPSASFLCSLFVNSLLLSKETKSAEEVPDDVDMEGNKESDDSDEEYDLTEKDKETNNNTDLGEDAIHQLSKSEEKELRKFRKVDYSWLTAL | 24.00 a.u. | 21.24 a.u.
